The list shows a part of the results.
Compound: CC1Cc2ccccc2N1C(=O)C1CCCN(C1)C(=O)CCl (mixture of isomers) [TRIM25 ligand 11 (diastereomer mixture)]
Experiment: probe-labelled cysteine peptide fold change vs DMSO (competition) (log2 fold change); higher = less target engagement (more negative = stronger competition)
Details: THP-1, incubation time: 4 h
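Further: competitive chemoproteomic profiling in live THP-1 cells with an iodoacetamide desthiobiotin (IA-DTB) probe, comparing probe-labelled peptide intensities in compound-treated cells against DMSO-treated controls.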

| Target | probe-labelled cysteine peptide fold change (10 µM) | probe-labelled cysteine peptide fold change (50 µM) |
| --- | --- | --- |
| GNE_Q9Y223_303_HVPFDQFIQLVAHAGCMIGNSSCGVR (UniProt Q9Y223) | -0.0267 | -0.232 |
| GNL3_Q9BVP2_131_LYCQELK (UniProt Q9BVP2) | -0.0404 | -0.172 |
| GMEB2_Q9UKD1_323_DLAALEQQCDEHR (UniProt Q9UKD1) | 0.0818 | 0.0416 |
| GNS_P15586_140_SMCGYQTFFAGK (UniProt P15586) | -0.111 | -0.0983 |
| GPATCH8_Q9UKJ3_795_HKGELPPSSCQR (UniProt Q9UKJ3) | -0.186 | -0.0452 |
| GLG1_Q92896_542_MVEDCEHR (UniProt Q92896) | -0.00882 | 0.0634 |
| GOLPH3_Q9H4A6_108_LQLEACGMR (UniProt Q9H4A6) | -0.104 | -0.0563 |
| GOT1_P17174_46_TDDCHPWVLPVVK (UniProt P17174) | 0.0408 | -0.0235 |
| GNB1_P62873_148_ELAGHTGYLSCCR (UniProt P62873) | 0.0175 | 0.0947 |
| GMIP_Q9P107_599_LCQAFENGR (UniProt Q9P107) | 0.00421 | 0.0642 |
| GNB1_P62873_25_KACADATLSQITNNIDPVGR (UniProt P62873) | -0.198 | -0.211 |
| GORASP2_Q9H8Y8_173_LYVYNTDTDNCR (UniProt Q9H8Y8) | 0.0137 | 0.0227 |
| GLOD4_Q9HC38-2_45_AACNGPYDGK (UniProt Q9HC38) | -0.0467 | -0.24 |
| GMPS_P49915_523_TVGVQGDCR (UniProt P49915) | -0.0156 | -0.139 |
| GMDS_O60547_237_IYLGQLECFSLGNLDAK (UniProt O60547) | -0.00894 | -0.049 |
| GK_P32189_299_CVFSDHGLLTTVAYK (UniProt P32189) | 0.031 | -0.0458 |
| GNPTG_Q9UJJ9_142_VELACGK (UniProt Q9UJJ9) | -0.0795 | 0.0905 |
| GPHN_Q9NQX3_676_CILTWHHQEPLPWAQSTGNQMSSR (UniProt Q9NQX3) | -0.128 | -0.00354 |

Pulled one by one from the list above, three records:

| Target | probe-labelled cysteine peptide fold change (10 µM) | probe-labelled cysteine peptide fold change (50 µM) |
| --- | --- | --- |
| GPATCH8_Q9UKJ3_795_HKGELPPSSCQR (UniProt Q9UKJ3) | -0.186 | -0.0452 |
| GNE_Q9Y223_303_HVPFDQFIQLVAHAGCMIGNSSCGVR (UniProt Q9Y223) | -0.0267 | -0.232 |
| GMDS_O60547_237_IYLGQLECFSLGNLDAK (UniProt O60547) | -0.00894 | -0.049 |

Remaining list, next part:

| Target | probe-labelled cysteine peptide fold change (10 µM) | probe-labelled cysteine peptide fold change (50 µM) |
| --- | --- | --- |
| GNAI2_P04899_112_QLFALSCTAEEQGVLPDDLSGVIR (UniProt P04899) | -0.142 | -0.0648 |
| GMPS_P49915_137_EDGVFNISVDNTCSLFR (UniProt P49915) | -0.0439 | -0.2 |
| GORAB_Q5T7V8_354_CQEQAVSPK (UniProt Q5T7V8) | 0.15 | -0.232 |
| GOLGB1_Q14789_1964_CVSELEEEK (UniProt Q14789) | -0.0139 | 0.0208 |
| GNPTG_Q9UJJ9_157+169_LAHVSEPSTCVYALTFETPLVCHPHALLVYPTLPEALQR (UniProt Q9UJJ9) | 0.187 | 0.167 |
| GMIP_Q9P107_521_CRECEAFMVSGTECEECFLTCHK (UniProt Q9P107) | 0.0571 | 0.0807 |
| GNB4_Q9HAV0_25_ACNDATLVQITSNMDSVGR (UniProt Q9HAV0) | -0.197 | -0.202 |
| GMIP_Q9P107_521_ECEAFMVSGTECEECFLTCHK (UniProt Q9P107) | 0.0832 | 0.107 |
| GNL1_P36915_365_DGVVTIGCVGFPNVGK (UniProt P36915) | 0.0236 | 0.00145 |
| GOLGA4_Q13439_853_DVCTELDAHK (UniProt Q13439) | -0.0317 | 0.042 |
| GMPS_P49915_137_SVREDGVFNISVDNTCSLFR (UniProt P49915) | -0.131 | -0.144 |
| GNL3L_Q9NVN8_278_ACSVGAVPGITK (UniProt Q9NVN8) | 0.0241 | -0.0169 |
| GNB2_P62879_25_ACGDSTLTQITAGLDPVGR (UniProt P62879) | 0.0877 | 0.154 |
| GNS_P15586_513_LMMLQSCSGPTCR (UniProt P15586) | -0.101 | 0.00513 |
| GNL3_Q9BVP2_156_KVIEASDVVLEVLDARDPLGCR (UniProt Q9BVP2) | -0.41 | -0.169 |
| GNB1_P62873_148+149_ELAGHTGYLSCCR (UniProt P62873) | -0.132 | -0.182 |
| GNE_Q9Y223_160_LAHYHVCCTR (UniProt Q9Y223) | 0.0217 | 0.0965 |
